One assay has as its target HA-tagged RhoA(WT) (UniProt P61586). Description: co-IP; HEK293 cells transfected with GFP-tagged supervillin constructs and HA-tagged RhoA; lysates precipitated with anti-HA magnetic beads; immunoblot with anti-HA or anti-GFP.
Another assay concerns the target HA-tagged RhoA(V14) (UniProt P61586). The assay is described as above.

Protein sequences, listed by entry. Tags and fused reporters are not part of them. Lines headed by an entry give the natural chain unless they say otherwise; changes in a name come on top. Chains listed by the source or under a name are the forms on record and can include a tag or linker.
UniProt P61586: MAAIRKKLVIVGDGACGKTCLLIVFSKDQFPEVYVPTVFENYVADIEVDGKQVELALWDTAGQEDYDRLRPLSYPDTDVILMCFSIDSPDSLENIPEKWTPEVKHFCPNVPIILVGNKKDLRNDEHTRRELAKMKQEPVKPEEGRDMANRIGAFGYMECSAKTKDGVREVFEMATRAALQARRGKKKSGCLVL
HA-tagged RhoA(V14) (P61586, form named): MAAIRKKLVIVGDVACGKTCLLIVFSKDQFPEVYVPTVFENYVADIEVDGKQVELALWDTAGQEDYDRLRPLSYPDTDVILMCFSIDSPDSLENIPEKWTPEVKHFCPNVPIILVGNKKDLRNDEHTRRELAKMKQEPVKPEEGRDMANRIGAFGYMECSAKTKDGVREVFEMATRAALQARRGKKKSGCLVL
GFP-tagged SV1 (1-825) (O95425-2, form named): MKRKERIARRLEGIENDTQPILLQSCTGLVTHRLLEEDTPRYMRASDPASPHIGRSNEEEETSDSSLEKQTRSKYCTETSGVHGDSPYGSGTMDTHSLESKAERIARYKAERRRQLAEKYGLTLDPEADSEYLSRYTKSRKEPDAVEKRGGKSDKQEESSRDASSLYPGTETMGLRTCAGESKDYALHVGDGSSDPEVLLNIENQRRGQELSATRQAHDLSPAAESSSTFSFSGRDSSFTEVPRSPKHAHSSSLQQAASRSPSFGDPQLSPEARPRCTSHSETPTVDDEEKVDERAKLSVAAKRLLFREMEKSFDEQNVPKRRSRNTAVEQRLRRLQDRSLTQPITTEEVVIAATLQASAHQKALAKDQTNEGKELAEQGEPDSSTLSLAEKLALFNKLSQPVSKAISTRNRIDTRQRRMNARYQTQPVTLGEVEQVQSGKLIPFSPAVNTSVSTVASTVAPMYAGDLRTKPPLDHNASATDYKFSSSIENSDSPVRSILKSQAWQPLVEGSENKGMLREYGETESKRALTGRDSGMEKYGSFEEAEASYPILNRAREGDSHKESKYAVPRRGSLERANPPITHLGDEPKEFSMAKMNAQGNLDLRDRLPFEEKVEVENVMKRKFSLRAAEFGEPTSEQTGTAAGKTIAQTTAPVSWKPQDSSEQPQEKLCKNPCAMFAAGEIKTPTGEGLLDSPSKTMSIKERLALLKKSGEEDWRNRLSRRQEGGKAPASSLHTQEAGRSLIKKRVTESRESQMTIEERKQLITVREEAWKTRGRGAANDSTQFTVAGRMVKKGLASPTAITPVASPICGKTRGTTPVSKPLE

Results are given in words; binding and its absence hold for the method and conditions named. Binding seen in cells or lysates may run through a third protein. Some entries that bind do so weakly or less than the wild type.

Consider “GFP-tagged SV1 (1-825) (from UniProt O95425-2 1-825) (domain or fragment)”, for which the binding entry with HA-tagged RhoA(WT) and in the assay with HA-tagged RhoA(V14) was “binds” each time.

For the origin of these results see PMC6025706.
